Test results published in paper PMC5727398, “Nucleotide– and Mal3-dependent changes in fission yeast microtubules suggest a structural plasticity view of dynamics” (Nature Communications, 2017).
No constants are given. Whether binding was seen depends on the method and setting. Some entries that bind do so weakly or less than the wild type.

Chains of the proteins cited; added tags and fusions are not shown. Lines headed by an entry give the natural chain unless they say otherwise; changes in a name come on top.
UniProt P04688: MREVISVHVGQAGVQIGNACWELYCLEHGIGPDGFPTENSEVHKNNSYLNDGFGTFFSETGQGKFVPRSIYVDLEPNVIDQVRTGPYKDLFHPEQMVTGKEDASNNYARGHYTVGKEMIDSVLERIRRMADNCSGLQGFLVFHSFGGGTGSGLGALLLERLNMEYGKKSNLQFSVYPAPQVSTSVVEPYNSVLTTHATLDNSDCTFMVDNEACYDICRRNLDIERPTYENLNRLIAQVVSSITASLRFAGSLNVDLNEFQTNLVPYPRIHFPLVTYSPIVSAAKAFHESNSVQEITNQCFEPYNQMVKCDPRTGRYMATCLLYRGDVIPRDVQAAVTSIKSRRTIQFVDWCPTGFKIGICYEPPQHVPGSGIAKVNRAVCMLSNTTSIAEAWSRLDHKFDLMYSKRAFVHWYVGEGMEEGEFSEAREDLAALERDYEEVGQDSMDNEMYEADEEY
UniProt P05219: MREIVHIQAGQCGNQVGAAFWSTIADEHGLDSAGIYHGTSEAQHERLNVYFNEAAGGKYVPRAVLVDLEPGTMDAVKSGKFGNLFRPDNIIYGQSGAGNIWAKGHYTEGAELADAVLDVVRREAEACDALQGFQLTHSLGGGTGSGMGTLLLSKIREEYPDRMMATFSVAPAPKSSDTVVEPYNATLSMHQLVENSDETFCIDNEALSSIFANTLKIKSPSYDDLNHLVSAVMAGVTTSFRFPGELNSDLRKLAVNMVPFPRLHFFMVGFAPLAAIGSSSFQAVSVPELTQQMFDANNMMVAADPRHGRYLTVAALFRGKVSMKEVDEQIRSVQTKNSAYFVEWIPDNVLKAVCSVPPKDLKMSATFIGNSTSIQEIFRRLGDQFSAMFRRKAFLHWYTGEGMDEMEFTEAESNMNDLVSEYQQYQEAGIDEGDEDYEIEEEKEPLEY
UniProt Q15691: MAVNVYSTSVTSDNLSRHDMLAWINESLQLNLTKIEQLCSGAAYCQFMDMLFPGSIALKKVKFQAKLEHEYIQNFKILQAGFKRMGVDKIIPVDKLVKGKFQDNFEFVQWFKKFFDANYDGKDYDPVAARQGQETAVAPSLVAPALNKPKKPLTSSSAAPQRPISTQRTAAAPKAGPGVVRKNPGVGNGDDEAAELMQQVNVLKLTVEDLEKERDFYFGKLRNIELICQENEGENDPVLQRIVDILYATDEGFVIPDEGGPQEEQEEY

Molecular target: dynamic microtubules polymerized from unlabeled single-isoform S. pombe tubulin (S. pombe) (UniProt P04688+P05219)
Test: TIRF microscopy; dynamic unlabeled MTs grown from antibody-immobilized GMPCPP pig brain MT seeds; GFP-labelled EB protein in solution; PEM100 pH 6.9 plus 1 mM GTP, with additional KCl (55, 75, 85 mM) in some experiments; 4.5 or 14 uM Sp_tub, 25 uM pig brain tubulin; both purified

## EB1-GFP (from UniProt Q15691 1-268)
  binding: binds
